Data as given in article doi:10.1101/2020.08.03.234229.
Changes are numbered by the printed parent chain. Results are given in words; binding and its absence hold for the method and conditions named. Some results given as binding are weak or reduced against the parent protein; the word gives no strength.

Experiments:
[1] = molecular target: T1, tRNA splicing endonuclease TSEN, TSEN2–15–34–54 heterotetramer (human) (UniProt Q8NCE0+Q8WW01+Q9BSV6+Q7Z6J9); assay: native MS
T1 sequence (chain, high degree of phosphorylation (sites not given)) 1: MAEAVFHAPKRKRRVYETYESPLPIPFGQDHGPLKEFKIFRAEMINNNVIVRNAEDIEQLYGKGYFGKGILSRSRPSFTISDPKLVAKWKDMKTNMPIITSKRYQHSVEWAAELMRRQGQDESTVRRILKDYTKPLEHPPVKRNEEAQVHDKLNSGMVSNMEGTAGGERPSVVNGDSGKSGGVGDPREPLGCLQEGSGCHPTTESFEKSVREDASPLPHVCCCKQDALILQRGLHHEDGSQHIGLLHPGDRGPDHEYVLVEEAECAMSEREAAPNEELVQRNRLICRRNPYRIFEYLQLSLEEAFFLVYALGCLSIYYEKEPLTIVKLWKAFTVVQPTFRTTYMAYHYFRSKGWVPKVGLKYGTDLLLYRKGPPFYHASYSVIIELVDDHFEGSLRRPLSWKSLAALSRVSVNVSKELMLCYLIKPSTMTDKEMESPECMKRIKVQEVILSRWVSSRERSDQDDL
T1 sequence (chain, high degree of phosphorylation (sites not given)) 2: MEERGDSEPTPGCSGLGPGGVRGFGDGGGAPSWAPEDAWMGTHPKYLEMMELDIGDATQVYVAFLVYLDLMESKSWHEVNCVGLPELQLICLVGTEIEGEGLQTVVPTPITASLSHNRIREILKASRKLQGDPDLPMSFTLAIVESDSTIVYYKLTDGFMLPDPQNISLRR
T1 sequence (chain, high degree of phosphorylation (sites not given)) 3: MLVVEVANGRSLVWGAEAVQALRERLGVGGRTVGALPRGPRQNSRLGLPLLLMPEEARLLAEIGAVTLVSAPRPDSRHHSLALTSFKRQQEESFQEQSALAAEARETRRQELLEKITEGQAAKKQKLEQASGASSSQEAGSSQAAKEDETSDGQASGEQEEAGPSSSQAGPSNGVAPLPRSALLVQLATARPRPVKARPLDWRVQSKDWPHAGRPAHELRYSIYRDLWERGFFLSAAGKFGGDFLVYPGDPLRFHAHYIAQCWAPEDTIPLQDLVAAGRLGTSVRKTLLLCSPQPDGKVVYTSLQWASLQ
T1 sequence (chain, high degree of phosphorylation (sites not given)) 4: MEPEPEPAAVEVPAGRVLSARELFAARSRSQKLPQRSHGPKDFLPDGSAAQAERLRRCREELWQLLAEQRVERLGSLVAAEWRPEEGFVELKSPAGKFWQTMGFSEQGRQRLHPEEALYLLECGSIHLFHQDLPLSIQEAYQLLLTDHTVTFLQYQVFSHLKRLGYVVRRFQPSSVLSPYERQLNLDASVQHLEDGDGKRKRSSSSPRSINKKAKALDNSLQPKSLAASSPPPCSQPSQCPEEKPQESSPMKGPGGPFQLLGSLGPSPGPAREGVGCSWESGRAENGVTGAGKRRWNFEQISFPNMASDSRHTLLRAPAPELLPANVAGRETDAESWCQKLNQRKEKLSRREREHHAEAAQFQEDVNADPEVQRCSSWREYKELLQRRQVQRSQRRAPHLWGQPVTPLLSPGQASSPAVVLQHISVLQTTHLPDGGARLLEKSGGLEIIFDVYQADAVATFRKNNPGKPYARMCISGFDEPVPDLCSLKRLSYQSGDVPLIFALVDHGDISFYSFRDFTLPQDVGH

[2] = molecular target: T2, catalytically inactive TSEN tetramer (TSEN2 H377A and TSEN34 H255A double mutant) (human) (UniProt Q8NCE0+Q8WW01+Q9BSV6+Q7Z6J9); assay: co-expression and co-purification
T2 sequence 1: T1 sequence (chain, high degree of phosphorylation (sites not given)) 1 with H377A
T2 sequence 2: T1 sequence (chain, high degree of phosphorylation (sites not given)) 2
T2 sequence 3: T1 sequence (chain, high degree of phosphorylation (sites not given)) 3 with H255A
T2 sequence 4: T1 sequence (chain, high degree of phosphorylation (sites not given)) 4

[3] = molecular target: T1, tRNA splicing endonuclease TSEN, TSEN2–15–34–54 heterotetramer (human); assay: co-expression and co-purification
[4] = molecular target: T3, tRNA splicing endonuclease subunit TSEN15 (human), Q8WW01; assay: co-expression and co-purification; conditions: remark: other sources report otherwise
T3 chain: T1 sequence (chain, high degree of phosphorylation (sites not given)) 2

B1: RNA kinase CLP1 (enzyme, UniProt Q92989 1-425)
chain: MGEEANDDKKPTTKFELERETELRFEVEASQSVQLELLTGMAEIFGTELTRNKKFTFDAGAKVAVFTWHGCSVQLSGRTEVAYVSKDTPMLLYLNTHTALEQMRRQAEKEEERGPRVMVVGPTDVGKSTVCRLLLNYAVRLGRRPTYVELDVGQGSVSIPGTMGALYIERPADVEEGFSIQAPLVYHFGSTTPGTNIKLYNKITSRLADVFNQRCEVNRRASVSGCVINTCGWVKGSGYQALVHAASAFEVDVVVVLDQERLYNELKRDLPHFVRTVLLPKSGGVVERSKDFRRECRDERIREYFYGFRGCFYPHAFNVKFSDVKIYKVGAPTIPDSCLPLGMSQEDNQLKLVPVTPGRDMVHHLLSVSTAEGTEENLSETSVAGFIVVTSVDLEHQVFTVLSPAPRPLPKNFLLIMDIRFMDLK
binding [1]: binds | binding [2]: binds | binding [3]: binds

B2: tRNA splicing endonuclease subunit TSEN54, Q7Z6J9 1-526 (protein)
chain: T1 sequence (chain, high degree of phosphorylation (sites not given)) 4
modifications: here or on the partner: high degree of phosphorylation (sites not given)
binding [4]: binds
